Drawing on paper PMC7862700, this text covers binding signal for 39 sequences.

Chains of the proteins cited; added tags and fusions are not shown. Lines headed by an entry give the natural chain unless they say otherwise; changes in a name come on top.
UniProt Q00613: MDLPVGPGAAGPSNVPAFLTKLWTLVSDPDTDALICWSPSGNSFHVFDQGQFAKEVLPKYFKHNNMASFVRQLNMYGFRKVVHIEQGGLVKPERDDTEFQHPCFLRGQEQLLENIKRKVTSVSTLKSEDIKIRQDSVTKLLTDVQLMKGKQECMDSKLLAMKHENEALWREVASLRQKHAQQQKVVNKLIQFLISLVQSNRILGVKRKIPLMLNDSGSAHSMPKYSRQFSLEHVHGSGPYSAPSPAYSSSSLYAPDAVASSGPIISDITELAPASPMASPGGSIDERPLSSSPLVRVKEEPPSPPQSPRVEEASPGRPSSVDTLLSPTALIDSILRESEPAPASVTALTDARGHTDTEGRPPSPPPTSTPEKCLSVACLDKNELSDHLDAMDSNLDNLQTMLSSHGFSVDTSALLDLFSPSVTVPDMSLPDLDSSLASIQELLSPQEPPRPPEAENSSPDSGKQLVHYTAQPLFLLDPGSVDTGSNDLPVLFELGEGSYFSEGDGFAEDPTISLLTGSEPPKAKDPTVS

This is a selection; strong and weak results do not stand in their true shares. At the low end of the ranking the order means little.

The target of the experiment is HSF1 (UniProt Q00613). Nature of the experiment: DAPPL (digital affinity profiling via proximity ligation, sequencing). The following applies: 10 mM Tris-HCl pH 7.5, 50 mM NaCl, 1 mM DTT, 4% glycerol, room temperature, 30 min; GST-TFs on glutathione beads, 16-mer random dsDNA library, 0.1% …; high values mean tight binding; double strand, one strand shown; scale: fold enrichment (6-mer frequency, TF over GST control).
For TGGACG, the binding signal came out at 0.797.

On to AGTAGA, for which the binding signal came to 0.798.

GGTGAT had a binding signal of 0.752.

The sequence CAGTGA displayed a binding signal of 0.339.

In turn, GGAGCG yielded a binding signal of 0.322.

As for TAGGGG, the binding signal came out at 0.867.

Regarding GAGGCT, the binding signal was 0.626.

For the sequence ACGTAG, the binding signal was found to be 0.681.

For AGGCGT, the binding signal was 0.439.

GTGAGG: the binding signal came to 0.223.

GTCTGC had a binding signal of 0.69.

The sequence GGAGGG yielded a binding signal of 0.266.

In turn, GTCATG returned a binding signal of 0.63.

Regarding AAGAGA, the binding signal is 0.939.

For the sequence CAGAGT, the binding signal was determined as 0.593.

Sequence CACGGG returned a binding signal of 0.7.

GTTGTG gave a binding signal of 0.711.

With AAACGT, the binding signal worked out at 0.884.

In turn, GCTGTC gave a binding signal of 0.712.

In the case of CCATCG, the binding signal was determined as 0.856.

For the sequence ACCGAG, the binding signal came out at 0.854.

Sequence GGAGCC came in with a binding signal of 0.263.

Take GGGGCG: the binding signal was found to be 0.46.

In turn, AGCCAG gave a binding signal of 0.499.

Regarding TGCGGG, the binding signal was 0.729.

GCACGG registered a binding signal of 0.651.

Take ACGTGT: the binding signal was determined as 0.561.

The sequence GAGTTC returned a binding signal of 0.661.

In turn, GTGAGC gave a binding signal of 0.307.

GTGTGT registered a binding signal of 0.401.

CTAGTC displayed a binding signal of 0.957.

TAGCCA had a binding signal of 0.864.

In the case of GGGCAA, the binding signal was found to be 0.732.

Take CAGGTA: the binding signal is 0.737.

Take CACCAG: the binding signal worked out at 0.737.

Sequence CGTGAG displayed a binding signal of 0.137.

In turn, TCCAGG had a binding signal of 0.979.

The sequence AGTCAA showed a binding signal of 0.538.

For GGGGTA, the binding signal is 0.608.
